{"source": "PubChem BioAssay AID504793 (Drosophila RNAi Screening Center, 2011)", "screen": "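Knock-downs allowing continued mitosis even though DNA is damaged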 (primary screen)", "cell system": "Drosophila S2R+ cells", "reagent": "long dsRNA against Drosophila genes, about 0.25 µg dsRNA per well", "duration": "4 days of dsRNA, then 4 hours of drug before read-out", "challenge": "doxorubicin 0.5 µM for 4 hours to cause double-strand breaks, in cells also given a low, harmless dose of dsRNA against nbs to sensitise the assay", "measurement": "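Per-well count of mitotic cells stained for phospho-histone H3 after doxorubicin exposure, used as mitotic index; counts are raw and not normalised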", "direction": "mitotic cells: higher = more cells in mitosis, weaker G2 arrest", "rule for the call": "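a call needs confirmation in secondary tests, with other dsRNAs and a check of mitotic timing without damage, not just a high primary count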", "calls": "active = confirmed in follow-up tests; inactive = not confirmed", "note": "The screen tested about 23,000 reagents; shown is a random part of those with a known target gene and a result. Over the whole deposit, 62 (0.27%) were called active. 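Calls come from follow-up tests whose scores are not deposited, so confirmed genes may have low counts here; counts are not normalised per plate.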 The raw values are shown without normalisation. A number with no mark means an inactive call. Reagents against one gene are numbered here. Names joined by + are all predicted targets of the reagent. Reagent sequences are not shown."}
{"gene": "Ice2", "dsRNA no.": 1, "mitotic cells, replicate 1": 8}
{"gene": "CG33502 + CG32857 + CG32500", "dsRNA no.": 1, "mitotic cells, replicate 1": 15}
{"gene": "CG33502 + CG32857 + CG32500", "dsRNA no.": 2, "mitotic cells, replicate 1": 11}
{"gene": "RpL18A", "dsRNA no.": 1, "mitotic cells, replicate 1": 5}
{"gene": "Obp50b + Obp50c", "dsRNA no.": 1, "mitotic cells, replicate 1": 10}
{"gene": "kek3", "dsRNA no.": 1, "mitotic cells, replicate 1": 4}
{"gene": "kek3", "dsRNA no.": 2, "mitotic cells, replicate 1": 10}
{"gene": "kek3", "dsRNA no.": 3, "mitotic cells, replicate 1": 3}
{"gene": "HHEX", "dsRNA no.": 1, "mitotic cells, replicate 1": 11}
{"gene": "HHEX", "dsRNA no.": 2, "mitotic cells, replicate 1": 7}
{"gene": "HP4", "dsRNA no.": 1, "mitotic cells, replicate 1": 3}
{"gene": "CG33169", "dsRNA no.": 1, "mitotic cells, replicate 1": 4}
{"gene": "CG33169", "dsRNA no.": 2, "mitotic cells, replicate 1": 9}
{"gene": "CG31161", "dsRNA no.": 1, "mitotic cells, replicate 1": 18}
{"gene": "CG31161", "dsRNA no.": 2, "mitotic cells, replicate 1": 4}

A stretch from the list above, as a working copy:
{"gene": "RpL18A", "dsRNA no.": 1, "mitotic cells, replicate 1": 5}
{"gene": "Obp50b + Obp50c", "dsRNA no.": 1, "mitotic cells, replicate 1": 10}
